Laboratory results as given in the supplement of paper PMC10849652.
This is one part of the list. Residues, ends and D or L forms follow the SMILES beside them. *: point of attachment. Cbz = O=C(OCc1ccccc1)*

Sequences of proteins named here, by UniProt entry; tags and fusion partners are left off. A change or cut given only in a name is not applied to a line headed by its entry.
UniProt P48147: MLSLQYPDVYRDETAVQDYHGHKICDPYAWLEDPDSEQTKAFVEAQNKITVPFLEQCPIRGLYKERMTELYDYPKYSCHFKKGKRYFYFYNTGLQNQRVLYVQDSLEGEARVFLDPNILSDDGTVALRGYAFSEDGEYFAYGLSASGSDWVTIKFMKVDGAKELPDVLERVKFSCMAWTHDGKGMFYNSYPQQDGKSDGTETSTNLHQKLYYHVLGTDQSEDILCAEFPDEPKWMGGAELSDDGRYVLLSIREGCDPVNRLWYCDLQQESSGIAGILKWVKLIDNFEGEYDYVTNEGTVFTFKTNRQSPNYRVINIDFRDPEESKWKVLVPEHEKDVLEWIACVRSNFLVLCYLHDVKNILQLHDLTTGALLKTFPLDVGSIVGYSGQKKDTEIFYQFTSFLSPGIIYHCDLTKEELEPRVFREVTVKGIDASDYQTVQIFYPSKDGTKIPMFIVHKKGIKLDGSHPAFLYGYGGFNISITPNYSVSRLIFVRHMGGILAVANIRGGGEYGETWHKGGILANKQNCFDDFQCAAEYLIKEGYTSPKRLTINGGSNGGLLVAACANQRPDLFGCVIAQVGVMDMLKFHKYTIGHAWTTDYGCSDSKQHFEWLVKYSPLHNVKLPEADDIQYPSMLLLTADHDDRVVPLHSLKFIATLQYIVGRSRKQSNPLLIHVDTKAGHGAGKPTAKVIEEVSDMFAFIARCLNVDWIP
UniProt Q9NY27: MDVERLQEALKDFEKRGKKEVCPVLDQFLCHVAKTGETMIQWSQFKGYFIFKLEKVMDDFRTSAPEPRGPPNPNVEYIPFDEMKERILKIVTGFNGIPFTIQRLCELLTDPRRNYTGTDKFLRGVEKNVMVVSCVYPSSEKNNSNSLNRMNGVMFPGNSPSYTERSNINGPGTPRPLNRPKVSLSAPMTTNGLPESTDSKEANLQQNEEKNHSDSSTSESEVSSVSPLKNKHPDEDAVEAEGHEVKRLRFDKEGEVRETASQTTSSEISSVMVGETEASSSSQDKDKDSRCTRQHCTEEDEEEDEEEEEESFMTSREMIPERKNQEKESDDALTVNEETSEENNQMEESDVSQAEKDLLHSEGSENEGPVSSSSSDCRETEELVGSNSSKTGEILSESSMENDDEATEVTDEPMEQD
UniProt Q12972: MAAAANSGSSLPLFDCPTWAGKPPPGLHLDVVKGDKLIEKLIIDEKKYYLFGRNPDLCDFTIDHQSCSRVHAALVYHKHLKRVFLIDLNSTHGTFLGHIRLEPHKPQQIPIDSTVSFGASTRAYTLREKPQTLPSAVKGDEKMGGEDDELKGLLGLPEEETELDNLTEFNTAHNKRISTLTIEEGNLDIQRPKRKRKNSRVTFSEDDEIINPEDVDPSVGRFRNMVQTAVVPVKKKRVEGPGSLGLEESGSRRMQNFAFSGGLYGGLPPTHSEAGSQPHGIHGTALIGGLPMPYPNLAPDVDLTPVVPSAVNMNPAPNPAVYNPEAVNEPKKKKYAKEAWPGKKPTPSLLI
UniProt O60828: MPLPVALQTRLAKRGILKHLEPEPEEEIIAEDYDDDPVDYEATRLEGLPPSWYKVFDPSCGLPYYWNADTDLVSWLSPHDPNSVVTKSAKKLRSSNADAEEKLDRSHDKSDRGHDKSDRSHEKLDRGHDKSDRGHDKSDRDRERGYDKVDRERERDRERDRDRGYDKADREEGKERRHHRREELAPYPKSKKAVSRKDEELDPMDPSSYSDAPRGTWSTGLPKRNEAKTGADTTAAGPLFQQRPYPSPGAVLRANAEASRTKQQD
UniProt Q14738, whole entry, looked up: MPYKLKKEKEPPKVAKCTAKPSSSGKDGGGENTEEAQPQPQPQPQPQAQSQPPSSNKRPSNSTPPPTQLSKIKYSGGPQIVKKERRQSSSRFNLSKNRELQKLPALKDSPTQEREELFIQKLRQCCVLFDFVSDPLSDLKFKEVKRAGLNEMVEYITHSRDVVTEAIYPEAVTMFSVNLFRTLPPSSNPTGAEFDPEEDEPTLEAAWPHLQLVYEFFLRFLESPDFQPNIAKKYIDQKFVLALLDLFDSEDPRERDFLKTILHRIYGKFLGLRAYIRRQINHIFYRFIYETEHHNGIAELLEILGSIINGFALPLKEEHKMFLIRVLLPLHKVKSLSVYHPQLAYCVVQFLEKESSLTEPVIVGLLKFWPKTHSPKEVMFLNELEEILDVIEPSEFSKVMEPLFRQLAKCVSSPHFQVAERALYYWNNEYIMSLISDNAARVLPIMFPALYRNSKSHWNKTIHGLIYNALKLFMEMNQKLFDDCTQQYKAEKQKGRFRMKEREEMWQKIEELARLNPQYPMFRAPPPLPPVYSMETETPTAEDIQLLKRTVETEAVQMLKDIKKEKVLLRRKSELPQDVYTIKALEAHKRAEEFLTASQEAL
UniProt Q9Y520: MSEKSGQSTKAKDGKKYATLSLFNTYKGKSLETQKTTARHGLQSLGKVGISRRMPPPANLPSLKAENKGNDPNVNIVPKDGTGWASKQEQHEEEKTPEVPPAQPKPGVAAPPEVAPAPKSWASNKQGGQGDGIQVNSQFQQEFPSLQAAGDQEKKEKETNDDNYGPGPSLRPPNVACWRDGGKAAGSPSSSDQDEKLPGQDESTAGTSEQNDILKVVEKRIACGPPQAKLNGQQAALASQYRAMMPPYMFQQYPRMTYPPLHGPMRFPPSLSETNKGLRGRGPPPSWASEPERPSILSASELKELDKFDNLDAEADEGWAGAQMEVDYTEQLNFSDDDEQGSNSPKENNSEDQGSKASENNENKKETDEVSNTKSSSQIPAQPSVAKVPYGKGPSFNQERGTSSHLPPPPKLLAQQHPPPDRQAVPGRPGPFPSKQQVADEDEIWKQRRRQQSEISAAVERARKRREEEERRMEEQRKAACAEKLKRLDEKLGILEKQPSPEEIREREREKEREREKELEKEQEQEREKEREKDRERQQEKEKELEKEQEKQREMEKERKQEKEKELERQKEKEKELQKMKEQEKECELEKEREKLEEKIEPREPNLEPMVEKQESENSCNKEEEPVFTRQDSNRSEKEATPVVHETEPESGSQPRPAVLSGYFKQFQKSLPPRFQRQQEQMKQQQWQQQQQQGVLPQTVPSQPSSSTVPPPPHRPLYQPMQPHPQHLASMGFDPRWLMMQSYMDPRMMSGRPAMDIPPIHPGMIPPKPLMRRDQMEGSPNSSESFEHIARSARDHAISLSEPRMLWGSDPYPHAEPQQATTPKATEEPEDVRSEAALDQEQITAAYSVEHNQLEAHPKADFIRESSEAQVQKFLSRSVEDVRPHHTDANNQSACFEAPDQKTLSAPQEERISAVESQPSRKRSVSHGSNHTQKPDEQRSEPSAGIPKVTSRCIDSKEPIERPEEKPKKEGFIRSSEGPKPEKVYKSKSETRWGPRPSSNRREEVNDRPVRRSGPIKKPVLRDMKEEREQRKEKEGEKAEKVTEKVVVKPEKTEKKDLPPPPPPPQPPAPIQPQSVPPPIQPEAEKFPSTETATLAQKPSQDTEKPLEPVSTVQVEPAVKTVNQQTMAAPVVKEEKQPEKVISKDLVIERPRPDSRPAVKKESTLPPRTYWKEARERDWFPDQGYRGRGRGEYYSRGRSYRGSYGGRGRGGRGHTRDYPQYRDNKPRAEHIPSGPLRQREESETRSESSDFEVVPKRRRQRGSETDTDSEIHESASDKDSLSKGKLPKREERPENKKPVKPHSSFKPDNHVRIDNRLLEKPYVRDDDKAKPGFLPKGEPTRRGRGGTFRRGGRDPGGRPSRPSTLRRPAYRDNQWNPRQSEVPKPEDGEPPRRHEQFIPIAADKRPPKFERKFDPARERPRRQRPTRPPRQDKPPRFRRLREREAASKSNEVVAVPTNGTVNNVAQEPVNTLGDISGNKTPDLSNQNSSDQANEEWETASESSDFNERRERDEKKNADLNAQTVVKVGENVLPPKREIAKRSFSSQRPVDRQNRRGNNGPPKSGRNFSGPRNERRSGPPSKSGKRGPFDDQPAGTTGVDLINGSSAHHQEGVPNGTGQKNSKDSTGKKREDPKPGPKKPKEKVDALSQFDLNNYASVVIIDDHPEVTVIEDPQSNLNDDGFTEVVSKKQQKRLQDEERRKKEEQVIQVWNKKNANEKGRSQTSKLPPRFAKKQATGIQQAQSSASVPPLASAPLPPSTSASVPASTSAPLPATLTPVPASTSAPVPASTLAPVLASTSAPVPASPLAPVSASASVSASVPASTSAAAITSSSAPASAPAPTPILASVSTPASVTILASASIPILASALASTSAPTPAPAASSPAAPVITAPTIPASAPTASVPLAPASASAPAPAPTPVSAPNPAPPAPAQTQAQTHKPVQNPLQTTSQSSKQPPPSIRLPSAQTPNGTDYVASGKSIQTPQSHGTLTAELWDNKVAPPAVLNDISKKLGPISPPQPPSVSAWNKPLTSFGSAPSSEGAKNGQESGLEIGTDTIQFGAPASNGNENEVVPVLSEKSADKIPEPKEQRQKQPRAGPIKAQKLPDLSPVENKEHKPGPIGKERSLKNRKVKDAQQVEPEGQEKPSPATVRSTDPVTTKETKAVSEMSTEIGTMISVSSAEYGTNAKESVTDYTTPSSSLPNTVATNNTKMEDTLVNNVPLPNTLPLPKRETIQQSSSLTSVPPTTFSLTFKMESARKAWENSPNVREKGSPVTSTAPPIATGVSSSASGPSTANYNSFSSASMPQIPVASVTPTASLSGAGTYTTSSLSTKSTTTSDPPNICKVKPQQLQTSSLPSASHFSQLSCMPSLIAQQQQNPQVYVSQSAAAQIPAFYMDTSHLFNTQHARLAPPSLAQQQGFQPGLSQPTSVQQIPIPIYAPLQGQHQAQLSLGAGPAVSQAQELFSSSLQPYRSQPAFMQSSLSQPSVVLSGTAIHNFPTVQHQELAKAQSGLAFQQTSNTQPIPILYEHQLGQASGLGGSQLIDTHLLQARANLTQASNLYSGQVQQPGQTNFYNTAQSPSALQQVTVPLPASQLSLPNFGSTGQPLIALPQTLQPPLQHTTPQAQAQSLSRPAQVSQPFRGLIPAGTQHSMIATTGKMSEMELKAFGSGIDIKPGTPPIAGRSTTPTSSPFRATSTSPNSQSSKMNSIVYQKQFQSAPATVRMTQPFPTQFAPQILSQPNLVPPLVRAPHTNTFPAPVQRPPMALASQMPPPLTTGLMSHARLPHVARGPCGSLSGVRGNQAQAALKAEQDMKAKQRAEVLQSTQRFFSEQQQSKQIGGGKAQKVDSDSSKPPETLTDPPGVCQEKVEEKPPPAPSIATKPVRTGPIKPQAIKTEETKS
UniProt Q9UMS4: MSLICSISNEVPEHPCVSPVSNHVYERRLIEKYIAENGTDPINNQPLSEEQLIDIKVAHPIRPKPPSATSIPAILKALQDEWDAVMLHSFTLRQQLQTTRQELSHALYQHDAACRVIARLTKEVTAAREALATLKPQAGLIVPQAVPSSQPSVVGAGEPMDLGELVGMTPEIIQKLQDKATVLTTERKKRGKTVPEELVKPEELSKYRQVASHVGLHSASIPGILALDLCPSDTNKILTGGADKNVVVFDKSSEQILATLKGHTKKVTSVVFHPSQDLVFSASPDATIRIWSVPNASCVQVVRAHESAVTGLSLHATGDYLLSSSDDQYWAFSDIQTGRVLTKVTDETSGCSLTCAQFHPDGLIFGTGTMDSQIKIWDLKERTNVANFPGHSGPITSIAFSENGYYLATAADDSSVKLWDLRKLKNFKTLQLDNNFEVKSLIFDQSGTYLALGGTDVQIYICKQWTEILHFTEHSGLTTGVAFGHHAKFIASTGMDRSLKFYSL
UniProt P62714, whole entry, looked up: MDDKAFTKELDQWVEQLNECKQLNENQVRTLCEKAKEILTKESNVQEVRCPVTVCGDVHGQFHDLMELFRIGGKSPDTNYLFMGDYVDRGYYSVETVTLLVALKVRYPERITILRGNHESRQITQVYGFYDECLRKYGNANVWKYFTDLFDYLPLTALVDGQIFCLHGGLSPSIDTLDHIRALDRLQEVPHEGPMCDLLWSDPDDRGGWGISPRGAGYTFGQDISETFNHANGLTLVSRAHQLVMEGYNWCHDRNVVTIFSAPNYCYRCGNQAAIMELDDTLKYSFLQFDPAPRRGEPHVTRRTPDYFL
UniProt O43172: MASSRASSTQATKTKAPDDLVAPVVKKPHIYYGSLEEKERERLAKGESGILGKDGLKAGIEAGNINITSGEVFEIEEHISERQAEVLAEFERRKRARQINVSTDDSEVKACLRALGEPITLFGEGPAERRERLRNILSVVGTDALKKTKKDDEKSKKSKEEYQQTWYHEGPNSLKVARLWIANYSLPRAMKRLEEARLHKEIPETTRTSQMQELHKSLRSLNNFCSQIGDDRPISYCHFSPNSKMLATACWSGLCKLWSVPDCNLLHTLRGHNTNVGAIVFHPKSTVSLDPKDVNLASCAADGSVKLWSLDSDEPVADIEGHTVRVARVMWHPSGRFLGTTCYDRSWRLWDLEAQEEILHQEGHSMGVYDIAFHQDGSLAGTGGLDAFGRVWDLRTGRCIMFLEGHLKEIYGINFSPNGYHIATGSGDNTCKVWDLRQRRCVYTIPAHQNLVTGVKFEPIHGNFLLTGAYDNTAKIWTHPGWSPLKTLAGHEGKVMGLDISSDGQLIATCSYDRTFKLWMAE

Columns and labels:
Assay in all cases: log2 fold change, soluble protein after heating vs DMSO (PISA); higher = thermal stabilisation; K562 cells, 10 uM, 30 min; active = over 0.2 and 3.5 SD of the protein, either way, in both replicates (recomputed)
erlotinib = compound: C#Cc1cccc(Nc2ncnc3cc(OCCOC)c(OCCOC)cc23)c1 [erlotinib]
Summary of the method: (§1)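 K562 cells at 2×10^6 cells/mL were given 10 μM compound for 30 min. Aliquots then went through 3 min of heating across 48°C-58°C, were pooled, and were extracted in PBS with 0.5% NP-40 at 4°C, and the supernatant after 21,000xg for 90 min was quantified by TMTpro 16plex LC-MS/MS with channel sums equalised. Thermal stability relative to control samples, from duplicates, is given as log2 fold change.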

[1] = compound: C/C(=N\NC(=O)C1=CC(=CC=C1)S(=O)(=O)N2CCOCC2)/C3=C(C=CC(=C3)Cl)O
Summary of the method: as §1

[2] = compound: C1=CC(=C(C=C1Cl)C2=NC3=NC=CN=C3C(=N2)NC4=CC=NC=C4)F
Summary of the method: as §1

[3] = compound: C1=CC(=CC=C1C2=NC3=C(N2)C=C(C=C3)C(=O)N)OC4=CC=C(C=C4)Cl
Summary of the method: as §1

[4] = compound: C1=CC2=C(C=CC(=C2)/C=C\3/C(=O)NC(=NCC4=CC=CS4)S3)N=C1
Summary of the method: as §1

[5] = compound: C1=CC2=NC=CN=C2C=C1/C=C/3\C(=O)NC(=O)S3
Summary of the method: as §1

[6] = compound: C1=CC=C(C=C1)C2=NC(=C(N2)C3=CC=NC=C3)C4=CC(=C(C=C4)Cl)O
Summary of the method: as §1

[7] = compound: C1=CC=C2C(=C1)C3=NNC4=CC=CC(=C43)C2=O
Summary of the method: as §1

[8] = compound: C1CCN(C1)C(=O)NC2=CC=CC(=C2)NC3=NC=C(C(=N3)NCCC4=CN=CN4)Br
Summary of the method: as §1

[9] = compound: C1CN(CCC1(CC2=CC=C(C=C2)Cl)N)C3=NC=NC4=C3C=CN4
Summary of the method: as §1

IRAK-1-4 Inhibitor I = compound: C1COCCN1CCN2C3=CC=CC=C3N=C2NC(=O)C4=CC(=CC=C4)[N+](=O)[O-] [IRAK-1-4 Inhibitor I]
Summary of the method: as §1

ibrutinib = compound: C=CC(=O)N1CCC[C@@H](n2nc(-c3ccc(Oc4ccccc4)cc3)c3c(N)ncnc32)C1 [ibrutinib]
Summary of the method: as §1

[10] = compound: CC(=O)c1cnc2ccc(-c3cc(Cl)c(O)c(Cl)c3)nc2c1N[C@H]1CC[C@H](CN(C)C)CC1
Summary of the method: as §1

ralimetinib = compound: CC(C)(C)Cn1c(N)nc2ccc(-c3[nH]c(C(C)(C)C)nc3-c3ccc(F)cc3)nc21 [ralimetinib]
Summary of the method: as §1

[11] = compound: CC(C)(O)CC(=O)NCCn1ccc2ncnc(Nc3ccc(Oc4cccc(C(F)(F)F)c4)c(Cl)c3)c21
Summary of the method: as §1

[12] = compound: CC(C)C1=C2N=C(C=C(N2N=C1)NCC3=CC=CC=C3)NCCCCCCN
Summary of the method: as §1

[13] = compound: CC(C)C[C@@H](C=O)NC(=O)[C@H](CC(C)C)NC(=O)[C@H](CC(C)C)NC(=O)OCc1ccccc1
Summary of the method: as §1

pinometostat = compound: CC(C)N(C[C@H]1O[C@@H](n2cnc3c(N)ncnc32)[C@H](O)[C@@H]1O)[C@H]1C[C@@H](CCc2nc3cc(C(C)(C)C)ccc3[nH]2)C1 [pinometostat]
Summary of the method: as §1

[14] = compound: CC1=C(C(CC(=O)N1)C2=CC=C(C=C2)C(F)(F)F)C(=O)NC3=C(C=C4C(=C3)C=NN4)F
Summary of the method: as §1

[15] = compound: CC1=C(C2=C(C=C1)C(=O)C3=CC=CC=C3N2CCCN)C
Summary of the method: as §1

Measured: log2 fold change

PREB (UniProt Q9HCU5)
inactive: erlotinib 0.082 | [1] -0.021 | [2] 0.016 | [3] 0.028 | [4] -0.007 | [5] 0.043 | [6] 0.011 | [7] -0.042 | [8] 0.001 | [9] 0.04 | IRAK-1-4 Inhibitor I 0.014 | ibrutinib 0.031 | [10] 0.006 | ralimetinib -0.004 | [11] 0.005 | [12] -0.021 | [13] -0.023 | pinometostat 0.001 | [14] -0.023 | [15] 0.029

PREP (UniProt P48147)
inactive: erlotinib 0.028 | [1] 0.091 | [2] -0.117 | [3] -0.016 | [4] 0.114 | [5] 0.058 | [6] 0.075 | [7] -0.029 | [8] -0.041 | [9] -0.097 | IRAK-1-4 Inhibitor I -0.128 | ibrutinib -0.007 | [10] 0 | ralimetinib 0.158 | [11] -0.059 | [12] -0.223 | [13] 0.052 | pinometostat 0.179 | [14] 0.021 | [15] 0.01

PPP4R2 (UniProt Q9NY27)
inactive: erlotinib 0.072 | [1] -0.01 | [2] 0.075 | [3] -0.02 | [4] 0.031 | [5] 0.041 | [6] -0.022 | [7] 0.011 | [8] 0.023 | [9] 0.033 | IRAK-1-4 Inhibitor I 0.037 | ibrutinib -0.025 | [10] -0.003 | ralimetinib 0.048 | [11] 0.066 | [12] -0.015 | [13] 0.004 | pinometostat -0.003 | [14] 0.014 | [15] -0.082

PPP1R9B (UniProt Q96SB3)
inactive: erlotinib 0.045 | [1] -0.107 | [2] -0.187 | [3] 0.053 | [4] -0.11 | [5] 0.052 | [6] -0.054 | [7] -0.062 | [8] -0.049 | [9] -0.145 | IRAK-1-4 Inhibitor I -0.123 | ibrutinib 0.142 | [10] 0.177 | ralimetinib 0.166 | [11] 0.115 | [12] -0.09 | [13] -0.065 | pinometostat 0.196 | [14] -0.291 | [15] -0.012

PPP1R8 (UniProt Q12972)
inactive: erlotinib -0.052 | [1] 0.039 | [2] 0.148 | [3] 0.055 | [4] -0.101 | [5] 0.048 | [6] -0.017 | [7] 0.018 | [8] -0.045 | [9] 0.071 | IRAK-1-4 Inhibitor I -0.044 | ibrutinib 0.005 | [10] -0.044 | ralimetinib -0.086 | [11] -0.051 | [12] 0.034 | [13] 0.039 | pinometostat -0.017 | [14] 0.005 | [15] 0.041

PQBP1 (UniProt O60828)
inactive: erlotinib 0.026 | [1] 0.023 | [2] 0.011 | [3] -0.021 | [4] -0.168 | [5] 0.033 | [6] -0.072 | [7] -0.024 | [8] -0.006 | [9] -0.012 | IRAK-1-4 Inhibitor I 0.047 | ibrutinib 0.032 | [10] -0.021 | ralimetinib -0.03 | [11] 0.031 | [12] 0.118 | [13] 0.027 | pinometostat -0.031 | [14] 0.002 | [15] 0.015

PPP1R10 (UniProt Q96QC0)
inactive: erlotinib -0.021 | [1] -0.175 | [2] -0.381 | [3] -0.043 | [4] -0.031 | [5] 0.091 | [6] -0.077 | [7] -0.109 | [8] -0.02 | [9] -0.188 | IRAK-1-4 Inhibitor I -0.083 | ibrutinib -0.004 | [10] 0.236 | ralimetinib 0.143 | [11] 0.046 | [12] 0.071 | [13] 0.027 | pinometostat 0.353 | [14] -0.021 | [15] 0.223

PPP2R5D (UniProt Q14738)
inactive: erlotinib -0.029 | [1] 0.082 | [2] -0.037 | [3] -0.045 | [4] 0.038 | [5] 0.043 | [6] 0.024 | [7] 0.005 | [8] -0.03 | [9] -0.086 | IRAK-1-4 Inhibitor I -0.089 | ibrutinib -0.051 | [10] 0.096 | ralimetinib 0.079 | [11] -0.165 | [12] -0.161 | [13] 0 | pinometostat -0.004 | [14] -0.034 | [15] -0.015

PRRC2B (UniProt Q5JSZ5)
inactive: erlotinib 0.078 | [1] -0.057 | [2] 0.014 | [3] -0.042 | [4] 0.118 | [5] -0.033 | [6] -0.052 | [7] 0.094 | [8] -0.004 | [9] -0.007 | IRAK-1-4 Inhibitor I 0.017 | ibrutinib -0.037 | [10] -0.063 | ralimetinib 0.036 | [11] 0.035 | [12] -0.037 | [13] 0.066 | pinometostat -0.037 | [14] -0.038 | [15] 0.062

PRDX5 (UniProt P30044)
inactive: erlotinib -0.022 | [1] 0.021 | [2] 0.074 | [3] -0.01 | [4] 0.029 | [5] 0.012 | [6] -0.04 | [7] -0.02 | [8] 0.015 | [9] 0.038 | IRAK-1-4 Inhibitor I 0.03 | ibrutinib 0.006 | [10] -0.003 | ralimetinib -0.083 | [11] 0.015 | [12] 0.044 | [13] -0.017 | pinometostat -0.014 | [14] -0.013 | [15] -0.001

PRRC2C isoform 7 (UniProt Q9Y520)
inactive: erlotinib -0.086 | [1] -0.128 | [2] -0.263 | [3] 0.015 | [4] -0.051 | [5] -0.005 | [6] -0.051 | [7] -0.04 | [8] 0.037 | [9] -0.078 | IRAK-1-4 Inhibitor I -0.059 | ibrutinib 0.026 | [10] 0.062 | ralimetinib 0.108 | [11] 0.052 | [12] 0.022 | [13] 0.075 | pinometostat 0.155 | [14] 0.015 | [15] -0.163

PPP6R3 isoform 5 (UniProt Q5H9R7)
inactive: erlotinib -0.004 | [1] -0.002 | [2] 0.048 | [3] -0.012 | [4] -0.001 | [5] 0.059 | [6] 0.003 | [7] 0.029 | [8] -0.027 | [9] 0.013 | IRAK-1-4 Inhibitor I 0.009 | ibrutinib 0.003 | [10] 0.037 | ralimetinib -0.046 | [11] -0.008 | [12] 0.022 | [13] -0.016 | pinometostat -0.029 | [14] -0.01 | [15] -0.018

PRPF19 (UniProt Q9UMS4)
inactive: erlotinib -0.024 | [1] -0.012 | [2] 0.014 | [3] -0.011 | [4] -0.019 | [5] 0.013 | [6] -0.013 | [7] -0.026 | [8] 0.001 | [9] 0.019 | IRAK-1-4 Inhibitor I 0.049 | ibrutinib 0.006 | [10] 0.127 | ralimetinib -0.027 | [11] 0.035 | [12] 0.078 | [13] -0.044 | pinometostat -0.004 | [14] -0.003 | [15] 0.103

PRPF8 (UniProt Q6P2Q9)
inactive: erlotinib -0.099 | [1] -0.012 | [2] -0.123 | [3] 0.029 | [4] -0.015 | [5] 0.046 | [6] -0.091 | [7] -0.028 | [8] -0.005 | [9] -0.04 | IRAK-1-4 Inhibitor I 0.018 | ibrutinib -0.001 | [10] 0.037 | ralimetinib 0.022 | [11] 0.023 | [12] 0.123 | [13] 0.071 | pinometostat 0.111 | [14] -0.043 | [15] 0.012

PPP2CB (UniProt P62714)
inactive: erlotinib 0.001 | [1] -0.034 | [2] 0.009 | [3] 0.001 | [4] -0.011 | [5] -0.016 | [6] -0.016 | [7] -0.038 | [8] 0.01 | [9] 0.046 | IRAK-1-4 Inhibitor I 0.021 | ibrutinib 0.022 | [10] 0.001 | ralimetinib 0.004 | [11] -0.018 | [12] 0.063 | [13] -0.009 | pinometostat -0.033 | [14] 0.019 | [15] -0.023

PRPF4 (UniProt O43172)
inactive: erlotinib 0.012 | [1] 0.039 | [2] 0.014 | [3] 0.01 | [4] 0.008 | [5] 0.008 | [6] -0.014 | [7] 0.04 | [8] 0.021 | [9] 0.032 | IRAK-1-4 Inhibitor I 0.029 | ibrutinib 0.008 | [10] -0.092 | ralimetinib 0.005 | [11] -0.048 | [12] -0.114 | [13] 0.058 | pinometostat -0.005 | [14] 0 | [15] -0.117

Reprinted at random: two records from the list.
PRPF4 (UniProt O43172)
inactive: erlotinib 0.012 | [1] 0.039 | [2] 0.014 | [3] 0.01 | [4] 0.008 | [5] 0.008 | [6] -0.014 | [7] 0.04 | [8] 0.021 | [9] 0.032 | IRAK-1-4 Inhibitor I 0.029 | ibrutinib 0.008 | [10] -0.092 | ralimetinib 0.005 | [11] -0.048 | [12] -0.114 | [13] 0.058 | pinometostat -0.005 | [14] 0 | [15] -0.117

PPP2CB (UniProt P62714)
inactive: erlotinib 0.001 | [1] -0.034 | [2] 0.009 | [3] 0.001 | [4] -0.011 | [5] -0.016 | [6] -0.016 | [7] -0.038 | [8] 0.01 | [9] 0.046 | IRAK-1-4 Inhibitor I 0.021 | ibrutinib 0.022 | [10] 0.001 | ralimetinib 0.004 | [11] -0.018 | [12] 0.063 | [13] -0.009 | pinometostat -0.033 | [14] 0.019 | [15] -0.023
